# Results deposited as PubChem BioAssay AID1508597 (Cure First, 2020).
# Test: 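Genes whose silencing sensitises or protects ovarian cancer cells against rucaparib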 (primary screen)
# Cells: human ovarian carcinoma lines grown from tumours: OCI-P5x (papillary serous) and OCI-C5x (clear cell)
# Reagents: siRNA pool against human genes, 1.25 pmol siRNA per well
# Time to read-out: 72 h or 96 h, depending on the cell culture
# Challenge: rucaparib 20 µM (about IC30) or vehicle, present until read-out
# Rucaparib or vehicle: Rucaparib
# Cell line: OCI-P5x (serous)
# Detection: 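Luminescent ATP-based viability assay read 72 or 96 h after transfection, depending on culture, given as normalised percent viability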
# Scale: viability, normalised: higher = more viable cells remaining
# Hit rule: 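Active when normalised viability falls below 80 percent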
# Meaning of the calls: active = viability under 80%; inactive = viability 80% or more
# Shown is an unselected part of the about 2,100 reagents, under one of the conditions tested. 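Calls flag viability under 80% in either arm, not effects specific to rucaparib; the reference for percent is not stated.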 Some reagents were tested in more than one well and are listed for each. No sequences are given here. The record does not give: the 100% reference.
gene knocked down,technical replicate,"viability, normalised (%)",outcome
CDK18,1,79,active
CDK18,2,103,inactive
CDK18,3,65.7,active
DSTYK,1,57.2,active
DSTYK,2,67.1,active
DSTYK,3,60.5,active
PDK1,1,65.5,active
PDK1,1,71.4,active
PDK1,2,75.4,active
PDK1,2,78.3,active
PDK1,3,92.9,inactive
PDK1,3,68.7,active
PDE4B,1,55.9,active
PDE4B,2,49.9,active
PDE4B,3,69.7,active
RFC1,1,83,inactive
RFC1,2,78.7,active
RFC1,3,83.6,inactive
CUBN,1,67,active
CUBN,2,65.9,active
CUBN,3,59.9,active
PDE4C,1,48.8,active
PDE4C,2,55.2,active
PDE4C,3,54.9,active

Entries above whose gene name begins with C or c (6):
gene knocked down,technical replicate,"viability, normalised (%)",outcome
CDK18,1,79,active
CDK18,2,103,inactive
CDK18,3,65.7,active
CUBN,1,67,active
CUBN,2,65.9,active
CUBN,3,59.9,active
